Among the data in paper PMC10268282, “Activator-induced conformational changes regulate division-associated peptidoglycan amidases” (Proceedings of the National Academy of Sciences of the …, 2023) are binding values, retold here.

Results are given in words; binding and its absence hold for the method and conditions named. In cells and extracts the contact can be indirect.

The assay has as its target T1, full-length EnvC protein (E. coli) (UniProt P37690).
T1 sequence: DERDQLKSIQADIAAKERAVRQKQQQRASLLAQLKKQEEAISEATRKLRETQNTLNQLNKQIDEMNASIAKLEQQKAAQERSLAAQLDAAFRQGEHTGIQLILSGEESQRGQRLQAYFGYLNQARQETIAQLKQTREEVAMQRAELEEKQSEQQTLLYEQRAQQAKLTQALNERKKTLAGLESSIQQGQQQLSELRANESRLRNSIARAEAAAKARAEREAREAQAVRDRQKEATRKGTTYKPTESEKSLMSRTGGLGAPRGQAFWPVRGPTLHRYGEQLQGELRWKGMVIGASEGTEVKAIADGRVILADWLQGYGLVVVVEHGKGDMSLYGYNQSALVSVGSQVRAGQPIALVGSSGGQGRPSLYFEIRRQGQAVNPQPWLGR
Description: pull-down; copurification: AmiA or AmiA variants coexpressed alongside the His-tagged EnvC construct and copurified.

B1: AmiA (wild type), coexpressed for copurification (enzyme, UniProt P36548 35-289)
chain: KDELLKTSNGHSKPKAKKSGGKRVVVLDPGHGGIDTGAIGRNGSKEKHVVLAIAKNVRSILRNHGIDARLTRSGDTFIPLYDRVEIAHKHGADLFMSIHADGFTNPKAAGASVFALSNRGASSAMAKYLSERENRADEVAGKKATDKDHLLQQVLFDLVQTDTIKNSLTLGSHILKKIKPVHKLHSRNTEQAAFVVLKSPSVPSVLVETSFITNPEEERLLGTAAFRQKIATAIAEGVISYFHWFDNQKAHSKKR
As for B1, the binding entry is reported as “no binding”.
